Some of the results follow. Most values lie at the level of the controls, where differences are scatter.

The chains behind the UniProt entries cited, without tags or fusion partners. Where a name states a change or a piece, a line headed by the entry shows the natural chain unless it says otherwise.
UniProt Q8CCH2: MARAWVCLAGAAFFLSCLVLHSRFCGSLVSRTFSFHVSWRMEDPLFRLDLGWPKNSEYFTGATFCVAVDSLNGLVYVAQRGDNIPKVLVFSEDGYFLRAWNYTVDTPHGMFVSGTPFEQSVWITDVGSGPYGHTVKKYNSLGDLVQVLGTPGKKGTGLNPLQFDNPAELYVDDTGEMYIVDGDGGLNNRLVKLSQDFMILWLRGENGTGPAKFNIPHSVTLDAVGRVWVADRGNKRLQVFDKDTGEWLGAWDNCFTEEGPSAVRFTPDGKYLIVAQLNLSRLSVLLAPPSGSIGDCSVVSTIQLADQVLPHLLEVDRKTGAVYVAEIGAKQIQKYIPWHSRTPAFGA
UniProt Q8CH77: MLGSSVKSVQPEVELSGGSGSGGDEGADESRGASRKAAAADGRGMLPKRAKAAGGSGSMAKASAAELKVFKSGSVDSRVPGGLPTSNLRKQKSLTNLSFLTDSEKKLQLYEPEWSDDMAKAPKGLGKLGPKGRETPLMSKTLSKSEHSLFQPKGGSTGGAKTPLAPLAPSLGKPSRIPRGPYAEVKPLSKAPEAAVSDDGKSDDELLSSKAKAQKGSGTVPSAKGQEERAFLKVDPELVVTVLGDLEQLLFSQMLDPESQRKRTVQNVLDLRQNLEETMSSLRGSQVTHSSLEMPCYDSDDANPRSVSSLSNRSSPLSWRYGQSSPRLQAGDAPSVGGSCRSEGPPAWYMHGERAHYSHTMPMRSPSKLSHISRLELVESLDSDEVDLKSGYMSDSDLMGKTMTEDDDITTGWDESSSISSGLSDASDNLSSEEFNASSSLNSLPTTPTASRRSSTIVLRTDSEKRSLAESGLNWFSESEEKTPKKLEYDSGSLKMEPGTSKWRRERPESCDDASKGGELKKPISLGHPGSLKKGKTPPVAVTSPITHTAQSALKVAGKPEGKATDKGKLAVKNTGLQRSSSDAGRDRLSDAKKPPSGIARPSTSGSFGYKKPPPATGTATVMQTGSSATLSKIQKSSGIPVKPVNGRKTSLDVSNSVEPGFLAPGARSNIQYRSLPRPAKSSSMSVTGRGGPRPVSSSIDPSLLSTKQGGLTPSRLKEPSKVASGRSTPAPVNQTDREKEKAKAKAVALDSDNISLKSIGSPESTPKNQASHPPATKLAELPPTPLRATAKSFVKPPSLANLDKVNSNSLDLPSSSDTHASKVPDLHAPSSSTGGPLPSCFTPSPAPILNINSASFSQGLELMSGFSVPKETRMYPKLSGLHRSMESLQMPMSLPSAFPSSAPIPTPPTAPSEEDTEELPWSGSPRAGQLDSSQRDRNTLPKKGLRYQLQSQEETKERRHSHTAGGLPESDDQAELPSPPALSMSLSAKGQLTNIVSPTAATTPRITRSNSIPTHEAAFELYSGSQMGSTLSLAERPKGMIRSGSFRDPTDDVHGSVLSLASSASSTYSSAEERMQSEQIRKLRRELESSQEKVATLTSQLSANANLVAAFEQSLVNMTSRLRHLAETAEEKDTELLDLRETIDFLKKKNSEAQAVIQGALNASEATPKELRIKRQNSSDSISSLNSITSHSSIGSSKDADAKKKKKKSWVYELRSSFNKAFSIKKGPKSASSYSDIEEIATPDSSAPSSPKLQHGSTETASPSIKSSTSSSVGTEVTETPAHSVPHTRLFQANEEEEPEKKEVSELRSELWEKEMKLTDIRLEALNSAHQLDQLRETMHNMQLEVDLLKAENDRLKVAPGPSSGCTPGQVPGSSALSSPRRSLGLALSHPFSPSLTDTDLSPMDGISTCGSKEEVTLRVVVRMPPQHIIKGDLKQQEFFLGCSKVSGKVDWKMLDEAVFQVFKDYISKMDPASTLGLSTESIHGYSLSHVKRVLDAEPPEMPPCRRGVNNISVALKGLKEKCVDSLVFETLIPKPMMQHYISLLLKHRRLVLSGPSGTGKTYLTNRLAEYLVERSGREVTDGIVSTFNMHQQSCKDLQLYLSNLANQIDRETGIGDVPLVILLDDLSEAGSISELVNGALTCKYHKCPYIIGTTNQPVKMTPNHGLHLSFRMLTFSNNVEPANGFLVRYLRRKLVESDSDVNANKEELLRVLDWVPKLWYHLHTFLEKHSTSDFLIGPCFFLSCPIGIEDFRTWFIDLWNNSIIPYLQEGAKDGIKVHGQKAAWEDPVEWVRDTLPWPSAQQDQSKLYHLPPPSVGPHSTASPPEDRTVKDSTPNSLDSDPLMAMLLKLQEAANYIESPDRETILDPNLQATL
UniProt Q8JZS0: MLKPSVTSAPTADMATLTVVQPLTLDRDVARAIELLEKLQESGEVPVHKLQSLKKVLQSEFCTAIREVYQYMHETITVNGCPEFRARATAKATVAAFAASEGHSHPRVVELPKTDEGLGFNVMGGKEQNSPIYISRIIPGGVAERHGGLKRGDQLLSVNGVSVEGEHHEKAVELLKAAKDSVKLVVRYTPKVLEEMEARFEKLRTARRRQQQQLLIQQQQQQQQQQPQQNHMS
UniProt Q8CIC2: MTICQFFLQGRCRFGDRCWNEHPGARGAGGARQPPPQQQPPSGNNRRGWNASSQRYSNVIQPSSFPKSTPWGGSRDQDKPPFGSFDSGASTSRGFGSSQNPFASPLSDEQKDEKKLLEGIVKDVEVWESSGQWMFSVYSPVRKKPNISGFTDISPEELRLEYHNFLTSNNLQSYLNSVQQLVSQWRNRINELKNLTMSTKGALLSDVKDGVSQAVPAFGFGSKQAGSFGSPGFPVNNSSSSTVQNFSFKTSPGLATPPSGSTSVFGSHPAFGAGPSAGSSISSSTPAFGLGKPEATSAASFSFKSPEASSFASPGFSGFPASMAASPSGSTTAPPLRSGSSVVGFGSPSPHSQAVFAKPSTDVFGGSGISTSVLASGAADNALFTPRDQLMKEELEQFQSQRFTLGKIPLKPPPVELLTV
UniProt Q8CHH5, whole entry: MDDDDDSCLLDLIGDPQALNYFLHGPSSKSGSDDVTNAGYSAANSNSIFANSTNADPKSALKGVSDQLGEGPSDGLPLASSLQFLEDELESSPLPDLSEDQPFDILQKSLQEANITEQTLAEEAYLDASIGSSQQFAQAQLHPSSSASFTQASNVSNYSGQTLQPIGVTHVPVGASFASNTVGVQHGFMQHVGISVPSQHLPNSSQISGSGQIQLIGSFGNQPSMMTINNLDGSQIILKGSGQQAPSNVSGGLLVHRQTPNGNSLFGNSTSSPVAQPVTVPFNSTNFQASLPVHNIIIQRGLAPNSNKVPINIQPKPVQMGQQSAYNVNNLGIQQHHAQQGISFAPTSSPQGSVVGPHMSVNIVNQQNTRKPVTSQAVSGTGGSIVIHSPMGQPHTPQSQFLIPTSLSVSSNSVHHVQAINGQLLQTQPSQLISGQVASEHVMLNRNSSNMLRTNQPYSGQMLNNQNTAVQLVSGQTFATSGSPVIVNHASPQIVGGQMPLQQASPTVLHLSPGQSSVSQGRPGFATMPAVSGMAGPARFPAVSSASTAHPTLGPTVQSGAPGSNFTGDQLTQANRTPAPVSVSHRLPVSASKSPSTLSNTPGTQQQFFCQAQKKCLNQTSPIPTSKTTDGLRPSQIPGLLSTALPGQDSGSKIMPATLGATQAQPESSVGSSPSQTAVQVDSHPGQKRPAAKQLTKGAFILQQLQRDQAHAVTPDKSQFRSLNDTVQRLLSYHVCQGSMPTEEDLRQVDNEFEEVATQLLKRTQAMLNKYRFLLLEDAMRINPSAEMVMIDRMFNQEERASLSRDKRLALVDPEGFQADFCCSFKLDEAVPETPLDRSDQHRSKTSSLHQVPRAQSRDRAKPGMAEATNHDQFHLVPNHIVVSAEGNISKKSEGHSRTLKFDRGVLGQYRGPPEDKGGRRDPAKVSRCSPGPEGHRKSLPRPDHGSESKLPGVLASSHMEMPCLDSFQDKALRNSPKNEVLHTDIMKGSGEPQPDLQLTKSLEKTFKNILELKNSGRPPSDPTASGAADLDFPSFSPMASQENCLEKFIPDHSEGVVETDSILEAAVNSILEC
UniProt Q8CFD4: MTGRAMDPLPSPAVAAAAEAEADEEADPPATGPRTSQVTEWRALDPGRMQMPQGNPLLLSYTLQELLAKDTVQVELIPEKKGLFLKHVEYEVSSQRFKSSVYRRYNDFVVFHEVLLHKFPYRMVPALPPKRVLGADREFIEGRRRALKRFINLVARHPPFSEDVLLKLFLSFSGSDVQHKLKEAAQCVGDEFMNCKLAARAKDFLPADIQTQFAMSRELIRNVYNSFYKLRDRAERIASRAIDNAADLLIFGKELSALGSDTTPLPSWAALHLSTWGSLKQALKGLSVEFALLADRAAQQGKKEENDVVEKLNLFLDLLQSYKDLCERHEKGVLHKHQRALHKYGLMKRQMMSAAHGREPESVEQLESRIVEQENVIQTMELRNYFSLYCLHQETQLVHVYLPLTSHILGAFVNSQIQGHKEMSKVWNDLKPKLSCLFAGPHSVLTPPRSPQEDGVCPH
UniProt Q8CHK4, whole entry: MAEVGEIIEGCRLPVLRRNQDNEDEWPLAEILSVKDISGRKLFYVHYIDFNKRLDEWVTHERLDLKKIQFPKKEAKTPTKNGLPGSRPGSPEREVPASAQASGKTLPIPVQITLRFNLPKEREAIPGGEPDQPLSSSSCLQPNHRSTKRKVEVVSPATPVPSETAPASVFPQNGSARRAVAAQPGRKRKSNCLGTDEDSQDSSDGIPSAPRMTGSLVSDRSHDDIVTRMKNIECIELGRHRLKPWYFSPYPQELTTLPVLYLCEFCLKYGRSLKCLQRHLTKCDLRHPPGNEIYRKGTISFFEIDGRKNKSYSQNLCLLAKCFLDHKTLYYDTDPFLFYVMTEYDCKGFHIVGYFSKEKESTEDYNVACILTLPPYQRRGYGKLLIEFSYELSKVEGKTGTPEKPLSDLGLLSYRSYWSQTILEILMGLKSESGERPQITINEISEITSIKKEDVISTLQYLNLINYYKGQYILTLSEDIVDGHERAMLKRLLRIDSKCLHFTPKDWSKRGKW
UniProt Q8K0G8: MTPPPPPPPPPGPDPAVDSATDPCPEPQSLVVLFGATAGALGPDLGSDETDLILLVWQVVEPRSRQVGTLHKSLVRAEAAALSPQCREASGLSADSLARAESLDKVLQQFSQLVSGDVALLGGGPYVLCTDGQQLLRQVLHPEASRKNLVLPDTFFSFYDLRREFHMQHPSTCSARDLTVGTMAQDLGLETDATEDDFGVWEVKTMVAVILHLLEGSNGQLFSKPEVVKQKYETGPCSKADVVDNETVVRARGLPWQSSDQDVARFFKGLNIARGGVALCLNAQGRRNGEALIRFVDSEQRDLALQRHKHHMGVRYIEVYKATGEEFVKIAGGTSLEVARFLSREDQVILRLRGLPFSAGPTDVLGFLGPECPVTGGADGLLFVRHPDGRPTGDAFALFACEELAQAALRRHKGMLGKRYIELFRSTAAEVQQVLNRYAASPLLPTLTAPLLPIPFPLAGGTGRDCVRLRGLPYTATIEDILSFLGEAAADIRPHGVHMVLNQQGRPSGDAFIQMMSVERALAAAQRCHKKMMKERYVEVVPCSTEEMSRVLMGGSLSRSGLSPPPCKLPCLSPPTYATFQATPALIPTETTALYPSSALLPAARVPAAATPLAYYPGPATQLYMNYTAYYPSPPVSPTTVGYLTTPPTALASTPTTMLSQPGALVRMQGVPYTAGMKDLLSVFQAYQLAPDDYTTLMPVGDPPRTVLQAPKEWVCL

Compound in the test: CN[C@@H]1C[C@H]2O[C@@](C)([C@@H]1OC)n1c3ccccc3c3c4c(c5c6ccccc6n2c5c31)C(=O)NC4 [staurosporine]
As to the kind of experiment: log2 fold change of tryptic peptide abundance, ligand vs vehicle (limited proteolysis) (log2 ratio); higher = more trypsin-susceptible (destabilized). The conditions noted are these: ligand concentration: 20 uM; sample: mouse liver crude lysate; replicate design: treated separately.
“UniProt Q8CCH2 (peptide sequence: TGAVYVAEIGAK, peptide start residue: 319)”: the log2 fold change came to 0.0925. Then “UniProt Q8CH77 (peptide sequence: AVALDSDNISLK, peptide start residue: 747)”, with -0.286; and “UniProt Q8JZS0 (peptide sequence: AIELLEKLQESGEVPVHK, peptide start residue: 32)”, with -0.239.

Consider “UniProt Q8CIC2 (peptide sequence: DQDKPPFGSFDSGASTSR, peptide start residue: 76)”, for which the log2 fold change stood at 0.00141. Take “UniProt Q8CHI8 (peptide sequence: LGPEHIIK, peptide start residue: 2723)”: the log2 fold change is 0.26. To “UniProt Q8JZS9 (peptide sequence: TMEVMRLPDQGNK, peptide start residue: 130)” belongs 0.0873; to “UniProt Q8CHH5 (peptide sequence: DQAHAVTPDKSQFR, peptide start residue: 708)”, 0.264; to “UniProt Q8CFD4 (peptide sequence: QMMSAAHGREPESVEQLESR, peptide start residue: 350)”, -0.2. Then “UniProt Q8CHK4 (peptide sequence: HPPGNEIYR, peptide start residue: 287)”, with -0.527. Then “UniProt Q8K0G8 (peptide sequence: AEAAALSPQCR, peptide start residue: 77)”, with -0.329.

Consider “UniProt Q8CJF9 (peptide sequence: EVWFGFHQSVRPAMWK, peptide start residue: 195)”, for which the log2 fold change was -0.323.
